Values quoted from earlier work, collected in patent publication US8178709B2, “Iron preparation suitable for pharmaceutical formulation and process for the preparation thereof” (BioLink Life Sciences, Inc., priority 2009, dated 2012).

Conditions: stability constant for ferric iron and the ligand; cited from earlier work

| SMILES | log Kstab |
| --- | --- |
| O=C(O)CC(O)(CC(=O)O)C(=O)O [citrate] | 12 |
| O=P(O)(O)OP(=O)(O)O [pyrophosphate] | 22.2 |
